Measurements: patent publication US20100292135A1 (priority 2005, published 2010)
Like-named read-outs stand apart in the source and are kept apart here. Not every detail of the peptide structures is certain; ends, links or a residue may be inferred. For at least one compound, name, drawing or mass did not settle the structure. Ends that are not written are not given here. Peptide text beside a SMILES is read from it. * marks the point of attachment. SPy = c1ccc(S*)nc1; Cam = NC(=O)C*

Sequences of proteins named here, by UniProt entry; tags and fusion partners are left off. Residues count along the entry.
UniProt P0A7G6, 2-353: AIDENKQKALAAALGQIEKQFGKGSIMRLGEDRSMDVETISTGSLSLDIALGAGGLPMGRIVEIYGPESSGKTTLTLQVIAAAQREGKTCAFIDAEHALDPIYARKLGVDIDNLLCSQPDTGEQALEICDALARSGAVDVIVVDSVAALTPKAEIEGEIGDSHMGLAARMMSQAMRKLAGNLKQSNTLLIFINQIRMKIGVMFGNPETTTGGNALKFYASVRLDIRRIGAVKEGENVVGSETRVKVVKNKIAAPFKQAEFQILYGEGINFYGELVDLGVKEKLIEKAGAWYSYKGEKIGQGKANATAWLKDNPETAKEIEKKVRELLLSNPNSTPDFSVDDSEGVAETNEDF

Biological target: RecA protein (Escherichia coli, UniProt P0A7G6)
Type: biochemical, E. coli
[1] = read-out: IC50, inhibition of RecA ATPase activity
[2] = read-out: I50, ATPase activity of the RecA NPF

Molecule	IC50 [1]	increase in potency relative to INPEP-1 (rINPEP-1)	IC50 [2]
CC[C@H](C)[C@H](NC(=O)[C@H](CCCCN)NC(=O)[C@H](CCC(=O)O)NC(=O)[C@H](CC(C)C)NC(=O)[C@H](C)NC(=O)[C@H](CCCCN)NC(=O)[C@H](C)NC(=O)[C@H](CC(C)C)NC(=O)[C@H](C)NC(=O)[C@H](CCCCN)NC(=O)[C@H](CCC(N)=O)NC(=O)[C@H](CCCCN)NC(=O)[C@H](CC(=O)O)NC(=O)CNC(=O)CNC(=O)[C@H](Cc1ccc(O)cc1)NC(C)=O)C(=O)N[C@@H](C)C(=O)N[C@@H](CCCCN)C(=O)N[C@@H](CCC(N)=O)C(=O)N[C@@H](Cc1ccccc1)C(=O)NCC(=O)N[C@@H](CCCCN)C(=O)N[C@H](C(=O)N[C@H](C(=O)N[C@H](C(=O)N[C@@H](CSCC(N)=O)C(=O)N[C@@H](CCCNC(=N)N)C(=O)N[C@H](C(=O)N[C@H](C(=O)O)[C@@H](C)O)[C@@H](C)O)C(C)C)[C@@H](C)O)C(C)C [INPEP-1-SAc] (Ac-YGGDKQKALAKALEKIAKQFGKVTVC(Cam)RTT-OH; C-terminus assumed)	40 µM		
CC[C@H](C)[C@H](NC(=O)[C@H](CCCCN)NC(=O)[C@H](CCC(=O)O)NC(=O)[C@H](CC(C)C)NC(=O)[C@H](C)NC(=O)[C@H](CCCCN)NC(=O)[C@H](C)NC(=O)[C@H](CC(C)C)NC(=O)[C@H](C)NC(=O)[C@H](CCCCN)NC(=O)[C@H](CCC(N)=O)NC(=O)[C@H](CCCCN)NC(=O)[C@H](CC(=O)O)NC(=O)CNC(=O)CNC(=O)[C@H](Cc1ccc(O)cc1)NC(C)=O)C(=O)N[C@@H](C)C(=O)N[C@@H](CCCCN)C(=O)N[C@@H](CCC(N)=O)C(=O)N[C@@H](Cc1ccccc1)C(=O)NCC(=O)N[C@@H](CCCCN)C(=O)N[C@H](C(=O)N[C@H](C(=O)N[C@H](C(=O)N[C@@H](CSSc1ccccn1)C(=O)N[C@@H](CCCNC(=N)N)C(=O)N[C@H](C(=O)N[C@H](C(=O)O)[C@@H](C)O)[C@@H](C)O)C(C)C)[C@@H](C)O)C(C)C [INPEP-1-TP] (Ac-YGGDKQKALAKALEKIAKQFGKVTVC(SPy)RTT-OH; C-terminus assumed)	5 µM	10	
Ac-YGGDKQKALAKALEKIAKQFGKVTVCRTT [rINPEP-1]	33 µM		
GPSQPTYPGDDAPKEDLLRFALNLIQYLFVV [peptide designed by grafting]			> 1500 µM
GPSQPTYPGDDAPVEDLIRFYNDLQQYLNVV [aPP]			150 µM
